According to PMC2817451:
Results are given in words; binding and its absence hold for the method and conditions named. Binding seen in cells or lysates may run through a third protein. Some results given as binding are weak or reduced against the parent protein; the word gives no strength.

Sequences of proteins named here, by UniProt entry; tags and fusion partners are left off. Residues count along the entry.
UniProt P07766, residues 23-207: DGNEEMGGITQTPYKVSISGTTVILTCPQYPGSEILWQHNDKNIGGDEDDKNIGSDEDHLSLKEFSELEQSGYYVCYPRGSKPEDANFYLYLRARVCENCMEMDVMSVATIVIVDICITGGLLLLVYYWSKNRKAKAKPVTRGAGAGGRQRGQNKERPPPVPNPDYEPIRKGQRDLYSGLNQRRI
UniProt P08575, residues 26-1306: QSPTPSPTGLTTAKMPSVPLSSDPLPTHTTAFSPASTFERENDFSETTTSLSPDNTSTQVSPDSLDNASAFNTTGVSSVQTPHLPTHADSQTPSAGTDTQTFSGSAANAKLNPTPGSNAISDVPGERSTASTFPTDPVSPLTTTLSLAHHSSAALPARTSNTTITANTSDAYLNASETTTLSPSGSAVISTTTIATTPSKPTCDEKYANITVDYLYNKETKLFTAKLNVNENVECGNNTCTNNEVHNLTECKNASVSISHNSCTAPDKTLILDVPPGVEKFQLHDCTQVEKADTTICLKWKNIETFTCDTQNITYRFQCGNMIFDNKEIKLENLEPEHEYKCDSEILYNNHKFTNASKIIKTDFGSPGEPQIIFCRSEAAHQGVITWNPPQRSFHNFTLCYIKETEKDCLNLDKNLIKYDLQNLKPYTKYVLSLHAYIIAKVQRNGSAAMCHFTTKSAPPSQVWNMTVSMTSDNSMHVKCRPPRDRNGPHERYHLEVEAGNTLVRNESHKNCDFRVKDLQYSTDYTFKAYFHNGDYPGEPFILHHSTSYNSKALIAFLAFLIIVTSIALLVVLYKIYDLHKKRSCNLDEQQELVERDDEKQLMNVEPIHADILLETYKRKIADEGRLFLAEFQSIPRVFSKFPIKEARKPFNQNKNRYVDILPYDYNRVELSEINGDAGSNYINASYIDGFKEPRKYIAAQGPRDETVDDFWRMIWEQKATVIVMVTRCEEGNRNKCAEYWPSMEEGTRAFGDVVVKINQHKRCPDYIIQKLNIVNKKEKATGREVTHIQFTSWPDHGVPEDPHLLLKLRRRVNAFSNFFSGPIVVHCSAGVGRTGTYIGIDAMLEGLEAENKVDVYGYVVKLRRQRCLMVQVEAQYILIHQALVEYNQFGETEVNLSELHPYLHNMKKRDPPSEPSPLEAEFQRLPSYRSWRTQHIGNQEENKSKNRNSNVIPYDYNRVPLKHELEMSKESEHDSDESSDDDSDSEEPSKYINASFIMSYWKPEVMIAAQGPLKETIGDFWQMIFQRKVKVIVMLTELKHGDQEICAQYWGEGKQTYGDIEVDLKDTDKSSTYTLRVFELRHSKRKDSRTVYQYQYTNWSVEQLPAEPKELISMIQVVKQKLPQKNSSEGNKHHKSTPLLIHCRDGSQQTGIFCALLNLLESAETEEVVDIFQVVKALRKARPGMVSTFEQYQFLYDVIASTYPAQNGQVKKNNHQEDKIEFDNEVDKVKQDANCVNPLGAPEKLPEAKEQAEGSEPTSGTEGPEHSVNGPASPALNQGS
UniProt P41597: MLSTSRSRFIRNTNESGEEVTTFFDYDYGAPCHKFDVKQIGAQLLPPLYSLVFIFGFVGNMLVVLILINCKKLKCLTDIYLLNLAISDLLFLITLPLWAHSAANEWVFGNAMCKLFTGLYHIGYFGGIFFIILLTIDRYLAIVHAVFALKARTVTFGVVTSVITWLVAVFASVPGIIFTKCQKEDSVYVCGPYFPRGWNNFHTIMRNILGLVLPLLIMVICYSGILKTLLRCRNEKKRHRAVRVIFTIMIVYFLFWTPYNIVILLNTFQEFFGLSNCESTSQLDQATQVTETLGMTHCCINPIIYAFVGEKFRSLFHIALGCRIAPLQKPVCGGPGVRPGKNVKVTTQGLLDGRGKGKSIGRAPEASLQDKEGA
UniProt P49682: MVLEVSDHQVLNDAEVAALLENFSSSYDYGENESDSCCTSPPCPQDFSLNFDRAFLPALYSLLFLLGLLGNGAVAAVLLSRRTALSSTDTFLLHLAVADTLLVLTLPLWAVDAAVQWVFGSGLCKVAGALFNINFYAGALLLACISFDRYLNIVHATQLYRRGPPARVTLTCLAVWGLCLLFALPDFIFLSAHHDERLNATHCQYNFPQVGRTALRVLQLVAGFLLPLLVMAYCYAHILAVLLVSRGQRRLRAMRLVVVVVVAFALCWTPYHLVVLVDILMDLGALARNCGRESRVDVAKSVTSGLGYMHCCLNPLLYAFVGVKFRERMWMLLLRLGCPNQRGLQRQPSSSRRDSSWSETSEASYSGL

Experiments:
[1] = target: CD3ɛ subunit of the T cell receptor complex (human (endogenous in activated peripheral blood T cells)) (UniProt P07766); test: FRET or BRET; flow cytometric FRET on activated T cells stimulated with 10 nM CCL7; anti-CCR2-PE donor, anti-CD3ɛ-APC acceptor
[2] = target: CD3ɛ subunit of the T cell receptor complex (human (endogenous in activated peripheral blood T cells)) (UniProt P07766); test: FRET or BRET; flow cytometric FRET on activated T cells, incubation with CXCL10 omitted; anti-CXCR3-PE donor, anti-CD3ɛ-APC acceptor
[3] = target: CD3ɛ subunit of the T cell receptor complex (human (endogenous in activated peripheral blood T cells)) (UniProt P07766); test: FRET or BRET; flow cytometric FRET on activated T cells incubated with 10 nM CXCL10 for 20 min at 37 °C; donor anti-CXCR3-PE excited at 488 nm, acceptor APC conjugate (anti-CD3ɛ, or anti-CD45 as control) read at 675 nm; antibodies titrated to saturation; some samples acid washed (pH 2, 4 °C, 5 min)
[4] = target: CD45 (human (endogenous in activated peripheral blood T cells)) (UniProt P08575); test: as above

| binding [1] | binding [3] | binding [4] | Substance | binding [2] |
| --- | --- | --- | --- | --- |
| no binding | – | – | CCR2 (from UniProt P41597 1-374) (receptor) | – |
| – | binds | no binding | chemokine receptor CXCR3 (from UniProt P49682 1-368) | no binding (condition: without CXCL10 treatment) |
